Laboratory results as given in the supplement of paper PMC4604168 (melanoma cell lines).
This is one part of the list. Repeats are few or missing, and single values can be far off.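 Cells were imaged in 1,536-well plates, and nuclei stained with an antibody against cleaved PARP were counted against all DNA-stained nuclei to give the apoptosis fraction. Screening doses were chosen to leave most cells alive, and resting and induced cleaved-PARP levels differ strongly between cell lines.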

How the values were obtained:
Test in all cases: cleaved PARP positive nuclei fraction relative to DMSO control; melanoma cells; higher = more apoptosis
Conditions in all cases: library dose: low library concentration; 72 h
[1] = tested on: 501Mel
[2] = tested on: A101D
[3] = tested on: A2058
[4] = tested on: A375
[5] = tested on: C32
[6] = tested on: CBRC008 (line from a melanoma biopsy)
[7] = tested on: CBRC014 (line from a melanoma biopsy)
[8] = tested on: CBRC016 (line from a melanoma biopsy)
[9] = tested on: CBRC017 (line from a melanoma biopsy)

Compound	cleaved PARP positive nuclei fraction [1] [%]	cleaved PARP positive nuclei fraction [2] [%]	cleaved PARP positive nuclei fraction [3] [%]	cleaved PARP positive nuclei fraction [4] [%]	cleaved PARP positive nuclei fraction [5] [%]	cleaved PARP positive nuclei fraction [6] [%]	cleaved PARP positive nuclei fraction [7] [%]	cleaved PARP positive nuclei fraction [8] [%]	cleaved PARP positive nuclei fraction [9] [%]
Cc1cc(Nc2cc(N3CCN(C)CC3)nc(Sc3ccc(NC(=O)C4CC4)cc3)n2)n[nH]1 [Tozasertib] + CO[C@H]1C[C@@H]2CC[C@@H](C)[C@@](O)(O2)C(=O)C(=O)N2CCCC[C@H]2C(=O)O[C@H]([C@H](C)C[C@@H]2CC[C@@H](OCCO)[C@H](OC)C2)CC(=O)[C@H](C)/C=C(\C)[C@@H](O)[C@@H](OC)C(=O)[C@H](C)C[C@H](C)/C=C/C=C/C=C/1C [everolimus] (first compound 0.006 µM, partner dose 0.02 µM)	337	82.8	140	1810	96.9	114	109	39.5	108
Cc1cc(Nc2cc(N3CCN(C)CC3)nc(Sc3ccc(NC(=O)C4CC4)cc3)n2)n[nH]1 [Tozasertib] + CC(C)C[C@H](NC(=O)[C@H](Cc1ccccc1)NC(=O)c1cnccn1)B(O)O [Bortezomib] (first compound 0.006 µM, partner dose 0.001 µM)	202	103	164	57.9	81.9	562	141	137	96.4
Cc1cn(-c2cc(NC(=O)c3ccc(C)c(Nc4nccc(-c5cccnc5)n4)c3)cc(C(F)(F)F)c2)cn1 [nilotinib] + O=C(O)[C@@H]1[O][Sb](=[O])([O][Sb]2(=[O])[O][C@H]([C@H](O)CO)[C@H](O)[C@H](C(=O)O)[O]2)[O][C@H]([C@H](O)CO)[C@@H]1O [stibogluconate] (first compound 0.2 µM, partner dose 2 µM)	245	43.9	75.5	62	72.7	28.4	87.5	264	79.5
O=c1[nH]nc(Sc2ncc([N+](=O)[O-])s2)n1-c1ccc2c(c1)OCCO2 + CC(=O)O[C@@]12CO[C@@H]1C[C@H](O)[C@@]1(C)C(=O)[C@H](O)C3=C(C)[C@@H](OC(=O)[C@H](O)[C@@H](NC(=O)OC(C)(C)C)c4ccccc4)C[C@@](O)([C@@H](OC(=O)c4ccccc4)[C@H]21)C3(C)C [Docetaxel] (first compound 0.2 µM, partner dose 0.0001 µM)	116	131	1890	1090	162	329	126	313	239
N#CC[C@H](C1CCCC1)n1cc(-c2ncnc3[nH]ccc23)cn1 [ruxolitinib] + CC(=O)c1c(C)c2cnc(Nc3ccc(N4CCNCC4)cn3)nc2n(C2CCCC2)c1=O [palbociclib] (first compound 1 µM, partner dose 0.04 µM)	125	59.8	98.7	207	86.6	93.8	125	35	114
Cc1cn(-c2cc(NC(=O)c3ccc(C)c(Nc4nccc(-c5cccnc5)n4)c3)cc(C(F)(F)F)c2)cn1 [nilotinib] + C[C@]1(c2nc3c(C(N)=O)cccc3[nH]2)CCCN1 [Veliparib] (first compound 0.2 µM, partner dose 1.4 µM)	184	90	158	254	76.2	42.2	78.2	83.6	74.6
CCCCCCCCCCCCCCCCCCOP(=O)([O-])OC1CC[N+](C)(C)CC1 [Perifosine] + Cc1cc(Nc2cc(N3CCN(C)CC3)nc(/C=C/c3ccccc3)n2)n[nH]1 [ENMD2076] (first compound 0.4 µM, partner dose 0.04 µM)	168	119	320	272	80	165	169	66.8	83.8
O=C(/C=C/c1cccnc1)NCCCCC1CCN(C(=O)c2ccccc2)CC1 + CO[C@H]1C[C@@H]2CC[C@@H](C)[C@@](O)(O2)C(=O)C(=O)N2CCCC[C@H]2C(=O)O[C@H]([C@H](C)C[C@@H]2CC[C@@H](OCCO)[C@H](OC)C2)CC(=O)[C@H](C)/C=C(\C)[C@@H](O)[C@@H](OC)C(=O)[C@H](C)C[C@H](C)/C=C/C=C/C=C/1C [everolimus] (first compound 0.01 µM, partner dose 0.02 µM)	166	114	8.83	456	152	1680	139	23.3	213
CCCCCCCCCCCCCCCCCCOP(=O)([O-])OC1CC[N+](C)(C)CC1 [Perifosine] + CS(=O)(=O)CCNCc1ccc(-c2ccc3ncnc(Nc4ccc(OCc5cccc(F)c5)c(Cl)c4)c3c2)o1 [lapatinib] (first compound 0.4 µM, partner dose 0.8 µM)	63.3	79.8	116	108	79.9	73	88.8	20.6	72.2
O=C(/C=C/c1cccnc1)NCCCCC1CCN(C(=O)c2ccccc2)CC1 + Nc1ccn([C@@H]2O[C@H](CO)[C@@H](O)C2(F)F)c(=O)n1 [gemcitabine] (first compound 0.01 µM, partner dose 0.0004 µM)	81.4	41.7	131	105	74.5	6350	133	2050	581
